These results are taken from article doi:10.1101/2020.08.28.269175.

Amino acid sequences for entries named in this document (tags omitted). A change or cut given only in a name is not applied to a line headed by its entry.
UniProt P0DTD2, whole entry, stated change not applied: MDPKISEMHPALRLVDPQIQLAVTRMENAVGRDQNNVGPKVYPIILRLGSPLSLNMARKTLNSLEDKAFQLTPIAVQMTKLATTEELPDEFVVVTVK

The assay has as its target SARS-CoV-2 ORF9B (SARS-CoV-2), P0DTD2. The experiment in a line: proximity labelling. To be noted: remark: other sources report otherwise.

No constants are given. Whether binding was seen depends on the method and setting. Binding seen in cells or lysates may run through a third protein. Here binding means that the protein was enriched with, or labelled near, the bait; the list need not be complete.

B1: mitochondrial antiviral signaling protein (MAVS), Q7Z434 1-540 (protein)
chain: MPFAEDKTYKYICRNFSNFCNVDVVEILPYLPCLTARDQDRLRATCTLSGNRDTLWHLFNTLQRRPGWVEYFIAALRGCELVDLADEVASVYQSYQPRTSDRPPDPLEPPSLPAERPGPPTPAAAHSIPYNSCREKEPSYPMPVQETQAPESPGENSEQALQTLSPRAIPRNPDGGPLESSSDLAALSPLTSSGHQEQDTELGSTHTAGATSSLTPSRGPVSPSVSFQPLARSTPRASRLPGPTGSVVSTGTSFSSSSPGLASAGAAEGKQGAESDQAEPIICSSGAEAPANSLPSKVPTTLMPVNTVALKVPANPASVSTVPSKLPTSSKPPGAVPSNALTNPAPSKLPINSTRAGMVPSKVPTSMVLTKVSASTVPTDGSSRNEETPAAPTPAGATGGSSAWLDSSSENRGLGSELSKPGVLASQVDSPFSGCFEDLAISASTSLGMGPCHGPEENEYKSEGTFGIHVAENPSIQLLEGNPGPPADPDGGPRPQADRKFQEREVPCHRPSPGALWLQVAVTGVLVVTLLVVLYRRRLH
Consider B1, for which the binding result is “binds”.
